The values that follow come from patent US20160340421A1.

No constants are given. Whether binding was seen depends on the method and setting. In cells and extracts the contact can be indirect. Here binding means that the protein was enriched with, or labelled near, the bait; the list need not be complete.

The assay deals with T1, mouse GDF8 (from serum of treated C57BL6 mice) (mouse) (UniProt O08689).
T1 sequence: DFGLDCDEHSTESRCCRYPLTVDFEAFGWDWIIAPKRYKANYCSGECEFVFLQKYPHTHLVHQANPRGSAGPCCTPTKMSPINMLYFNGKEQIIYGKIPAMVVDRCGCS
Description: pull-down from serum of treated mice with anti human Fc beads, mass spectrometry.

B1: H4H1657N2 (antibody, V domains shown)
VH: EVQVLESGGDLVQPGGSLRLSCAASGFTFSAYAMTWVRQAPGKGLEWVSAISGSGGSAYYADSVKGRFTISRDNSKNTVYLQMNSLRAEDTAVYYCAKDGAWKMSGLDVWGQGTTVIVSS
VL: DIQMTQSPASLSASVGDRVTITCRASQDISDYLAWYQQKPGKIPRLLIYTTSTLQSGVPSRFRGSGSGTDFTLTISSLQPEDVATYYCQKYDSAPLTFGGGTKVEIK
On to B1, for which the binding result was “binds”.
